Source: US20050069542A1 (Human Genome Sciences, published 2005)
These are yes or no findings as the source states them, for the method shown. Some binding calls cover weakened binding; strength is not graded here.

Amino acid sequences for entries named in this document (tags omitted). A change or cut given only in a name is not applied to a line headed by its entry.
UniProt Q9HD89: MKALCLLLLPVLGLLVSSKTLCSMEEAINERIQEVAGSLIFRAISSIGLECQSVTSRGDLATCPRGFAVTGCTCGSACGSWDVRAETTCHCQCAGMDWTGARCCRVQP

Key:
[1] = target: Flag-tagged recombinant human GMAD (human) (UniProt Q9HD89); test: phage display selection of scFvs
[2] = target: Flag-tagged recombinant human GMAD (human) (UniProt Q9HD89); test: phage ELISA

| binding [1] | binding [2] | Binder |
| --- | --- | --- |
| binds | binds | GMBC659 (scFv) scFv: QVQLVESGGGLVKPGESLRLSCEASGFEFNYAWMSWVRQAPGKGLEWVGRSRSEASGGTTDYAAPLQDRFTISRDDSKNTLYLQVNSLKIEDTGVYFCKWEKSEYYGMDVWGRGTLVTVSSGGGGSGGGGSGGGGSQSVLTQPASVSGSPGQSITISCTGTSSDVGGYNYVSWYQQHPGKAPKLMIYEGSKRPSGVSNRFSGSKSGNTASLTISGLQAEDEADYYCSSYTTRSTRVFGGGTKLTVLG |
| binds | binds | GMBC668 (scFv) scFv: EVQLVESGGGLVKPGGSLRLSCAASGFTFSDAWMNWVRQAPGKGLEWVGRIKSKGSGGTTDYAAPVKGRFTISRDDSENTLYLQMNSLKTEDTAVYYCTWDHSYYYDMAVWGRGTLVTVSSGGGGSGGGGSGGGGSSELTQDPAVSVALGQTVRITCQGDSLRSYYASWYQQKPGQAPVLVIYGKNNRPSGIPDRFSGSSSGNTASLTITGAQAEDEADYYCNSRDSSGNHVVFGGGTKLTVLG |
| binds | binds | GMBC657 (scFv) scFv: QMQLMQSGGGLVKPGGSLRLSCAGSGFKFSDAWMNWVRQAPGKGLEWVGRIKSKGSGGTIEYAAPVKDRFIISRDDSKDTLYLQMNSLKTEDTALYYCTWDWDFYYGMNVWGQGTLVTVSSGGGGSGGGGSGGGGSSELTQDPAVSVALGQTVRITCQGDSLRSYYASWYQQKPGQAPVLVIYGKNNRPSGIPDRFSGSSSGNTASLTITGAQAEDEADYYCNSRDSSGNHVVFGGGTKLTVLG |
| binds | binds | GMBC648 (scFv) scFv: QVQLVESGGGLVKPGGSLRLSCAASGFTFSDAWMNWVRQAPGKGLEWVGRIKSKRSGGTIDYAAPVKDRFTISRDDSKNTLYLQMNSLKTEDTALYYCTWDWDFYYGMNVWGQGTMVTVSSGGGGSGGGGSGGGGSSELTQDPTVSVALGQTVRITCQGDSLRSYYASWYQQKPGQAPVLVIYGKNNRPSGIPDRFSGSSSGNTASLTITGAQAEDEADYYCNSRDSSGNHVVFGGGTKLTVLG |
| binds | binds | GMBC635 (scFv) scFv: EVQLVESGGGLVKPGGSLRLSCAASGFTFSDAWMNWVRQAPGKGLEWVGRIKSKGSGGTIDYAAPVKDRYTISRDDSKNTLYLQMNSLKTEDTALYYCTWDWDFYYGMNVWGKGTMVTVSSGGGGSGGGGSGGGGSSELTQDPAVSVALGQTVRITCQGDSLRSYYASWYQQKPGQAPVLVIYGKNNRPSGIPDRFSGSSSGNTASLTITGAQAEDEADYYCNSRDSSGNHVVFGGGTKLTVLG |
| binds | binds | GMBC682 (scFv) scFv: QVQLVESGGGVVKPGGSLRLSCAASGFKFSDAWMNWVRQAPGKGLEWVGRIKSKGSGGTIDYAAPVKDRFTISRDDSKNTLYLQMNSLKTEDTALYYCTWDWDFYYGMNVWGRGTLVTVSSGGGGSGGGGSGGGGSSELTQDPAVSVALGQTVRITCQGDSLRSYYASWYQQKPGQAPVLVIYGKNNRPSGIPDRFSGSSSGNTASLTITGAQAEDEADYYCNSRDSSGNHVVFGGGTKLTVLG |
| binds | binds | GMBC627 (scFv) scFv: GVQLVQSGGEVKKPGASVRVSCKASRYIFSNYGFSWVRQAPGQGLEWMGSIRNDKGSTNYAQGFQDRLTMTTDTSTNTVFMELRSLSSDDTAVYYCASAPYYYGMGIWGKGTLVTVSSGGGGSGGGGSGGGGSQSVLTQPASVSGSSGQSITISCTGTSSDVGGYNYVSWYQQHPGKAPKLMIYEVGNRPSGVSNRFSGSKSGNTASLTISGLQAEDEADYYCSSYTTRSTRVFGGGTKLTVLG |
| binds | binds | GMBC685 (scFv) scFv: QVQLVESGGVVVQPGGSLRLSCAASGFTFSDAWMNWVRQAPGKGLEWVGRIKSKGSGGTIDYAAPVKDRFTISRDDSKNTLYLQMNSLKTEDTALYYCTWDWDFYYGMNVWGKGTMVTVSSGGGGSGGGGSGGGGSSELTQDPAVSVALGQTVRITCQGDSLRSYYTNWFQQKPGQAPLLVVYAKNKRPSGIPDRFSGSSSGNTASLTITGAQAEDEADYYCHSRDSSGNHVLFGGGTKLTVLG |
| binds | binds | GMBC628 (scFv) scFv: QVQLQQSGAEVKKPGASVRVSCKASGYTFTSYGFSWVRQAPGQRLEWMGWISAYKGNANYAEKFQGRVTMTTDTSTNTAYMELRSLRSDDTAVYYCARTRISVAGLDYYYYGLDVWGRGTLVTVSSGGGGSGGGGSGGGGSSELTQDPAVSVALGQTVRITCQGDSLRSYYTNWFQQKPGQAPLLVVYAKNNRPSGIPDRFSGSSSGNTASLTITGAQAEDEADYYCNSRDSSGNHVVFGGGTKLTVLG |
| binds | binds | GMBC619 (scFv) scFv: EVQLVESGGGVVQPGRSLRLSCAASGFTFRSYGMHWVRQAPGKGLEWVAVITYDGSNKYYADSVKGRFTISRDNSKNTLYLQMNSLRADDTAVYYCARDGGGWYHPRLDYWGQGTMVTVSSGGGGSGGGGSGGGGSSELTQDPAVSVALGQTVRITCQGDSLRSYYASWYQQKPGQAPVLVIYGKNNRPSGIPDRFSGSSSGNTASLTITGAQAEDEADYYCNSRDSSGNHVVFGGGTKLTVLG |

The remaining lines, values behind:

| Binder | binding [1] | binding [2] |
| --- | --- | --- |
| GMBC638 (scFv) scFv: QVQLVQSGGGLVKPGESLRLSCEASGFEFNYAWMSWVRQAPGKGLEWVGRSRSVASGGTTDYAAPLQDRFTISRDDSKNTLYLQVNSLKIEDTGVYFCKWEKSEYYGMDVWGRGTMVTVSSGGGGSGGGGSGGGGSQSVLTQPASVSGSPGQSITISCTGTSSDVGGYNYVSWYQQHPGKAPKLMIYEGSKRPSGVSNRFSGSKSGNTASLTISGLQAEDEADYYCSSYTTRSTRVFGGGTKLTVLG | binds | binds |
| GMBC626 (scFv) scFv: EVQLVQSGGGLVKPGESLRLSCEASGFEFNYAWMSWVRQAPGKGLEWVGRSRSEASGGTTDYAAPLQDRFTISRDDSKNTLYLQVNSLKIEDTGVYFCKWEKSEYYGMDVWGRGTPVTVSSGGGGSGGGGSGGGGSQSVLTQPASVSGSPGQSITISCTGTSSDVGGYNYVSWYQQHPGKAPKLMIYEGSKRPSGVSNRFSGSKSGNTASLTISGLRAEDEADYYCSSYTTKSTQVFGGGTKLTVLG | binds | binds |
| GMBC621 (scFv) scFv: EVQLVQSGGGVVQPGRSLRLSCAASGFTFSSYGMHWVRQAPGKGLEWVAVISYDGSNKYYADSVKGRFTISRDNSKNTLYLQMDSLRAEDTAVYFCAKRGLWTPIDYWGKGTLVTVSSGGGGSGGGGSGGGGSSELTQDPAVSVALGQTVRITCQGDSLRSYYASWYQQKPGQAPVLVIYGKNNRPSGIPDRFSGSNSGNTASLTITGAQAEDEADYYCNSRDSSGNHVVFGGGTKLTVLG | binds | binds |
| GMBC665 (scFv) scFv: EVQLVETGGGLVKPGGSLRLSCAASGFTFSDAWMNWVRQAPGKGLEWVGRIKSKGSGGTIDYAAPVKDRFTISRDDSKNTLYLQMNSLKTEDTALYYCTWDWDFYYGMNVWGQGTMVTVSSGGGGSGGGGSGGGGSSELTQDPAVSVALGQTVRITCQGDSLRSYYASWYQQKPGQAPVLVIYGKNNRPSGIPDRFSGSSSGNTASLTITGAQAEDEADYYCNSRDSSGNHVVFGGGTKLTVLG | binds | binds |
| GMBC632 (scFv) scFv: QVQLVQSGGGLVKPGGSLRLSCAGSGFKFSDAWMNWVRQAPGKGLEWVGRIKSKGSGGTIEYAAPVKDRFIISRDDSKDTLYLQMNSLKTEDTALYYCTWDWDFYYDMNVWGQGTMVTVSSGGGGSGGGGSGGGGSSELTQDPAVSVALGQTVRITCQGDSLRSYYASWYQQKPGQAPVLVIYGKNNRPSGIPDRFFGSSSGNTASLTITGAQAEDEADYYCNSRDSSGNHVVFGGGTKLTVLG | binds | binds |
| GMBC639 (scFv) scFv: GVQLVQSGAEVKTPGASVKVSCKASGYTFTNHYMHWVRQAPGQGIEWVGVINPSGDGSSYAQTFQGRVTMTRDTSTSTVYMELRSLRSDDTAVYYCARDLFYDFWSDYYRNDQYYYMDVWGKGTLVTVSSGGGGSGGGGSGGGGSSELTQDPAVSVALGQAVRITCQGDSLRSYYASWYQQKPGQAPVLVIYGKNNRPSGIPDRFSGSSSGNTASLTITGAQAEDEADYYCNSRDSSGNHVVFGGGTKLTVLG | binds | binds |
| GMBC629 (scFv) scFv: QVQLVESGGGLVKPGGSLRLSCAGSGFKFSDAWMNWVRQAPGKGLEWVGRIKSKGSGGTIEYAVPVKDRFIISRDDSKDTLYLQMNSLKTEDTALYYCTWDWDFYYGMNVWGQGTLVTVSSGGGGSGGGGSGGGGSSELTQDPAVSVALGQTVRITCQGDSLRSYYTNWFQQKPGQAPLLVVYAKNKRPSGIPDRFSGSSSGNTASLTITGAQAEDEADYYCHSRDSSGNHVLFGGGTKLTVLG | binds | binds |
| GMBC729 (scFv) scFv: QVQLQESGGGLVKPGGSLRLSCAGSGFKFSDAWMNWVRQAPGKGLEWVGRIKSKGSGGTIEYAAPVKDRFIISRDDSKDTLYLQMDSLKTEDTALYYCTWDWDFYYGMNVWGQGTLVTVSSGGGGSGGGGSGGGGSSELTQDPAVSVALGQTVRITCQGDSLRNYYTNWFQQKPGQAPLLVVYAKNKRPSGIPDRFSGSSSGNTASLTITGAQAEDEADYYCHSRDSSGNHVLFGGGTKLTVLG | binds | binds |
| GMBC641 (scFv) scFv: EVQLVESGGGVVRPGRSLRLSCAASGFSFSSYGMHWVRQAPGKGLEWVSAISGSGGSTYYADSVKGRFTISRDNSKNTLYLQMNSLRAEDTAVYFCAKGGDRSFRAFDFWGQGTMVTVSSGGGGSGGGGSGGGGSSELTQDPAVSVALGQTVRITCQGDSLRSYYASWYQQKPGQAPVLVIYGKNNRPSGIPDRFSGSSSGNTASLTITGAQAEDEADYYCNSRDSSGNHVVFGGGTKLTVLG | binds | binds |
